# In patent US20240398896A1, “INFLAMMASOME INHIBITION” (National University of Singapore, priority 2021, published 2024):
# B1: bat ASC2: ASC2 (PYRIN-only protein) of the bat Pteropus alecto, SEQ ID NO:11; expressed from vectors or as Dox-inducible transgene (protein)
# chain: MGKKRDAILEALENLTADELKKFKLKLGAAPLRQGFRNIPRGALGPLDAVDLTDKLVAFYCEDYGAELTAVVLRDIGMQEEAERLQGVA
# B2: hupa4 ASC2: human ASC2 with 4 key sites substituted simultaneously with the ones in bat ASC2, SEQ ID NO:6 (protein)
# chain: MGTKREAILEVLENLTPEELKKFKMKLGTVPLREGFRRIPRGALGQLDIVDLTDKLVASYCEDYAAELVVAVLRDMGMLEEAARLQRAA
# What was measured:
# [1] = test system: P. alecto kidney (PaKi) cells; assay: ASC2-His protein expression on overexpression in bat kidney (PaKi) cells (immunoblot); design: species or system Pteropus alecto; settings: compared to human ASC2
# HEK293T cells = assay: ASC2-His protein expression on overexpression in HEK293T cells (immunoblot); settings: compared to human ASC2
Molecule,ASC2 protein expression (anti-His signal normalized to β-actin) [1],ASC2 protein expression (anti-His signal normalized to β-actin) (HEK293T cells)
B1,higher protein level,higher protein level
B2,enhanced protein expression,enhanced protein expression
